Data as given in PMC11729561.

Target: RPS23RG1 (endogenous, mouse brain) (mouse (endogenous in mouse brain synaptosomes))
Test: co-IP; mouse brain synaptosome lysates; IP with IgG and an anti-RR1 antibody; immunoblotting

binding | Binder
no binding | SHANK2 (endogenous, mouse brain synaptosomes) (protein, UniProt Q80Z38 1-1476) MKSLLNAFTKKEVPFREAPAYSNRRRRPPNTLAAPRVLLRSNSDNNLNAGAPEWAVCSAATSHRSLSPQLLQQTPSKPDGATKSLGSYTPGPRSRSPSLNRLGGTAEDGKRTQPHWHVGSPFTPGANKDSLSTFEYPGPRRKLYSAVPGRLFVAVKPYQPQVDGEIPLHRGDRVKVLSIGEGGFWEGSARGHIGWFPAECVEEVQCKPRDSQAETRADRSKKLFRHYTVGSYDSFDAASDCIIEDKTVVLQKKDNEGFGFVLRGAKADTPIEEFTPTPAFPALQYLESVDEGGVAWQAGLRTGDFLIEVNNENVVKVGHRQVVNMIRQGGNHLILKVVTVTRNLDPDDTARKKAPPPPKRAPTTALTLRSKSMTAELEELGLSLVDKASVRKKKDKPEEIVPASKPSRTAENVAIESRVATIKQRPTSRCFPAASDVNSVYERQGIAVMTPTVPGSPKGPFLGLPRGTMRRQKSIDSRIFLSGITEEERQFLAPPMLKFTRSLSMPDTSEDIPPPPQSVPPSPPPPSPTTYNCPRSPTPRVYGTIKPAFNQNPVVAKVPPATRSDTVATMMREKGMFYRRELDRFSLDSEDVYSRSPAPQAAFRTKRGQMPENPYSEVGKIASKAVYVPAKPARRKGVLVKQSNVEDSPEKTCSIPIPTIIVKEPSTSSSGKSSQGSSMEIDPQATEPGQLRPDDSLTVSSPFAAAIAGAVRDREKRLEARRNSPAFLSTDLGDEDVGLGPPAPRMQASKFPEEGGFGDEDETEQPLLPTPGAAPRELENHFLGGGEAGAQGEAGGPLSSTSKAKGPESGPAAPLKSSSPAGPENYVHPLTGRLLDPSSPLALALSARDRAMQESQQGHKGEAPKADLNKPLYIDTKMRPSVESGFPPVTRQNTRGPLRRQETENKYETDLGKDRRADDKKNMLINIVDTAQQKSAGLLMVHTVDVPMAGPPLEEEEDREDGDTKPDHSPSTVPEGVPKTEGALQISAAPEPAVAPGRTIVAAGSVEEAVILPFRIPPPPLASVDLDEDFLFTEPLPPPLEFANSFDIPDDRAASVPALADLVKQKKNDTSQPPTLNSSQPANSTDSKKPAGISNCLPSSFLPPPESFDAVTDSGIEEVDSRSSSDHHLETTSTISTVSSISTLSSEGGESMDTCTVYADGQAFVVDKPPVPPKPKMKPIVHKSNALYQDTLPEEDTDGFVIPPPAPPPPPGSAQAGVAKVIQPRTSKLWGDVPEVKSPILSGPKANVISELNSILQQMNRGKSVKPGEGLELPVGAKSANLAPRSPEVMSTVSGTRSTTVTFTVRPGTSQPITLQSRPPDYESRTSGPRRAPSPVVSPTELSKEILPTPPPPSATAASPSPTLSDVFSLPSQSPAGDLFGLNPAGRSRSPSPSILQQPISNKPFTTKPVHLWTKPDVADWLESLNLGEHKETFMDNEIDGSHLPNLQKEDLIDLGVTRVGHRMNIERALKQLLDR
binds | MDGA2 (endogenous, mouse brain) (protein, UniProt P60755 26-924) PPTVRIVHSGLACNIEEERYSERVYTIREGETLELTCLVTGHPRPQIRWTKTAGSASDRFQDSSVFNETLRITNIQRHQGGRYYCKAENGLGSPAIKSIRVDVYYLDDPVVTVHQSIGEAKEQFYYERTVFLRCVANSNPPVRYSWRRGQEVLLQGSDKGVEIYEPFFTQGETKILKLKNLRPQDYANYSCIASVRNVCNIPDKMVSFRLSNKTASPSIKLLVDDPIVVNPGEAITLVCVTTGGEPTPSLTWVRSFGTLPEKIVLNGGTLTIPAITSDDAGTYSCIANNNVGNPAKKSTNIIVRALKKGRFWITPDPYHKDDNIQIGREVKISCQVEAVPSEELTFSWFKNGRPLRSSERMVITQTDPDVSPGTTNLDIIDLKFTDFGTYTCVASLKGGGISDISIDVNISSSTVPPNLTVPQEKSPLVTREGDTIELQCQVTGKPKPIILWSRADKEVAMPDGTMQMESYDGTLRIVNVSREMSGMYRCQTSQYNGFNVKPREALVQLIVQYPPAVEPAFLEIRQGQDRSVTMSCRVLRAYPIRVLTYEWRLGNKLLRTGQFDSQEYTEYPLKSLSNENYGVYNCSIINEAGAGRCSFLVTGKAYAPEFYYDTYNPVWQNRHRVYSYSLQWTQMNPDAVDRIVAYRLGIRQAGQQRWWEQEIKINGNIQKGELITYNLTELIKPEAYEVRLTPLTKFGEGDSTIRVIKYTGEFHCGFEDGNICLFTQDDTDNFDWTKQSTATRNTKYTPNTGPSADRSGSKEGFYMYIETSRPRLEGEKARLLSPVFSIAPKNPYGPTNSAYCFSFFYHMYGQHIGVLNVYLRLKGQTTIENPLWSSSGNKGQRWNEAHVNIYPITSFQLIFEGIRGPGIEGDIAIDDVSIAEGECAKQDLPTKNSVD

No constants are given. Whether binding was seen depends on the method and setting. Binding seen in cells or lysates may run through a third protein. Binding can be weak; no strength is given.
